Measurements from the supplement of paper PMC7666118.
Some of the results follow.

Amino acid sequences for entries named in this document (tags omitted). A change or cut given only in a name is not applied to a line headed by its entry.
UniProt Q8TAQ2, whole entry: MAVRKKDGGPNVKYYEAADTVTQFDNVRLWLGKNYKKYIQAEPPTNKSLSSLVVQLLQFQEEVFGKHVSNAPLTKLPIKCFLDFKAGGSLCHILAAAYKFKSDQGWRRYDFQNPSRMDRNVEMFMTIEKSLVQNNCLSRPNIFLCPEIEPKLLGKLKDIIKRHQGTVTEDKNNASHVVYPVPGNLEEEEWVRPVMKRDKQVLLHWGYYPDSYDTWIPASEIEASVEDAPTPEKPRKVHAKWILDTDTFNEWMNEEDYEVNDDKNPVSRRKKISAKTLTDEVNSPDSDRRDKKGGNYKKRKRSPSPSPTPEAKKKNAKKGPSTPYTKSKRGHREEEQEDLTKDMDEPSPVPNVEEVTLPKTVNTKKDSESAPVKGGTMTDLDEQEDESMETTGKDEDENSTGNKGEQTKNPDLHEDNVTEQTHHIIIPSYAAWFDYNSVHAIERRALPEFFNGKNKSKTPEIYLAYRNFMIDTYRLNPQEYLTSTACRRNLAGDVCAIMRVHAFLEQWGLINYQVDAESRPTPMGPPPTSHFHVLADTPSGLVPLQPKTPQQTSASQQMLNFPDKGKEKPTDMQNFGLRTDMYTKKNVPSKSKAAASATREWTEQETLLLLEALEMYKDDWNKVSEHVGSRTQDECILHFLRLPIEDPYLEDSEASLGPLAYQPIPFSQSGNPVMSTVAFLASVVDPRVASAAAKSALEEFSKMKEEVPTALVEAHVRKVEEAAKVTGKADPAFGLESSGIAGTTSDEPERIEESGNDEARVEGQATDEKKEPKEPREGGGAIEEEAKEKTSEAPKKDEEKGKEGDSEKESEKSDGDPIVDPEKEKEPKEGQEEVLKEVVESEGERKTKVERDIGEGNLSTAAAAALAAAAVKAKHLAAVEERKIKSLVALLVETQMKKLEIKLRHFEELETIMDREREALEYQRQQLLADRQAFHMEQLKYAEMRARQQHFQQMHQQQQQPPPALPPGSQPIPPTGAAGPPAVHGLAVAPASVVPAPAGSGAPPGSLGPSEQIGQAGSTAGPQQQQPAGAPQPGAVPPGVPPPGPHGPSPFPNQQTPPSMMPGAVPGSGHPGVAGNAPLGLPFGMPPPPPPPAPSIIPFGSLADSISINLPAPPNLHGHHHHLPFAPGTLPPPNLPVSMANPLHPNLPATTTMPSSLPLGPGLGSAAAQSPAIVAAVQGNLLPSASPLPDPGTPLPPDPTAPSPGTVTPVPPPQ
UniProt P04179: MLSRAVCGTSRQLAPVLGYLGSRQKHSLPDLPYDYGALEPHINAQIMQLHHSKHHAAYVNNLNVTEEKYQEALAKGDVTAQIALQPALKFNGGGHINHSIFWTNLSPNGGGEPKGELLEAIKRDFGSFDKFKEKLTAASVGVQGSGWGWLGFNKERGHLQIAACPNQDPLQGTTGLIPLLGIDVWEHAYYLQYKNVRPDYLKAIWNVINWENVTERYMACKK
UniProt Q15796, whole entry: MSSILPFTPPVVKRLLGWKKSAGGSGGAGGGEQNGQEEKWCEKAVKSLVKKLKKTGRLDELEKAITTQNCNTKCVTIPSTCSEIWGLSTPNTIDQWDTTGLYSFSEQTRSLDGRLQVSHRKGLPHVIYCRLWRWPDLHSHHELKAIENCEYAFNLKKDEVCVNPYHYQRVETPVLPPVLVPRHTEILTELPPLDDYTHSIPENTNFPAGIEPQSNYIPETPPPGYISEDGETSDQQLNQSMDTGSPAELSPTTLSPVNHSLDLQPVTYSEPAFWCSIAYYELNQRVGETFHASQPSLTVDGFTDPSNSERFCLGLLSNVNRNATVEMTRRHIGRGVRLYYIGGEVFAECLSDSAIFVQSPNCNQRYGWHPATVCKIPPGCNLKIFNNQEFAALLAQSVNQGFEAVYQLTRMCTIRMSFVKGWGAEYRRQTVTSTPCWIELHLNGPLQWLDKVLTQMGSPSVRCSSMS
UniProt Q8TCT7: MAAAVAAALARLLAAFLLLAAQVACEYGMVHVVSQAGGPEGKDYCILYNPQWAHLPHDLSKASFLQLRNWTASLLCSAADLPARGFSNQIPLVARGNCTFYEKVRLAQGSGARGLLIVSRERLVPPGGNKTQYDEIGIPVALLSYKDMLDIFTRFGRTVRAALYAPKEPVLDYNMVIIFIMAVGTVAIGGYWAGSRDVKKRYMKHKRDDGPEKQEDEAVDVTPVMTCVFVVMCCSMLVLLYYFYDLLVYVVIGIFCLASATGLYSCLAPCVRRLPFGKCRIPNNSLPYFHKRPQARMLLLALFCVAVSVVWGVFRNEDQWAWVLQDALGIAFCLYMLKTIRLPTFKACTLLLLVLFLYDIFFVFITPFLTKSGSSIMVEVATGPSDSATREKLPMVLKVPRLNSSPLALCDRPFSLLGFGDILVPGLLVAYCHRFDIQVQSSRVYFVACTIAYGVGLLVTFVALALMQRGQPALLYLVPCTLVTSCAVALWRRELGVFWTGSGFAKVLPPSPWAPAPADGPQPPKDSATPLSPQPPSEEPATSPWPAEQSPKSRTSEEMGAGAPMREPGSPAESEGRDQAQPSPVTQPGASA
UniProt Q96I99: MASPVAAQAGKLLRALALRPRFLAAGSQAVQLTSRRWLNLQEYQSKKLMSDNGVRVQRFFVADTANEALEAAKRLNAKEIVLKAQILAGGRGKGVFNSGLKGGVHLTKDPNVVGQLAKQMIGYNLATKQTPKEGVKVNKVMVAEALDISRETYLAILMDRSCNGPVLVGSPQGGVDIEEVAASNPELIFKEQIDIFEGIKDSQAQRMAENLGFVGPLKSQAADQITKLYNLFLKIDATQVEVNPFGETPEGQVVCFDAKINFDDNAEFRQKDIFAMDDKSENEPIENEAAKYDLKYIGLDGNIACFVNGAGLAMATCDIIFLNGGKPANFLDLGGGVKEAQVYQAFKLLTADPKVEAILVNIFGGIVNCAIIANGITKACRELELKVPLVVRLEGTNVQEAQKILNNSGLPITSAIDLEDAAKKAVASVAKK
UniProt Q8WU79: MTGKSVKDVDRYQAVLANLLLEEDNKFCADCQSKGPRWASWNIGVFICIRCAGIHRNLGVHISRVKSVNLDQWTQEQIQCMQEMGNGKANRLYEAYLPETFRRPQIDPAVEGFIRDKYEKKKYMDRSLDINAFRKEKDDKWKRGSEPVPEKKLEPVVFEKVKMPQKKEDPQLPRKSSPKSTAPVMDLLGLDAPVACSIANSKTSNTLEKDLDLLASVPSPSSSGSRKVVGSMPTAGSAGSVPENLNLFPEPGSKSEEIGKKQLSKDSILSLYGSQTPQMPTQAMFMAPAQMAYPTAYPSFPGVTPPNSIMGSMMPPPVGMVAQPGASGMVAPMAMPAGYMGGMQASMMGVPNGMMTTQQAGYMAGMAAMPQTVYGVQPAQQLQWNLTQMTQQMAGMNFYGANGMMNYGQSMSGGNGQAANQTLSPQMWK
UniProt Q9Y3F4: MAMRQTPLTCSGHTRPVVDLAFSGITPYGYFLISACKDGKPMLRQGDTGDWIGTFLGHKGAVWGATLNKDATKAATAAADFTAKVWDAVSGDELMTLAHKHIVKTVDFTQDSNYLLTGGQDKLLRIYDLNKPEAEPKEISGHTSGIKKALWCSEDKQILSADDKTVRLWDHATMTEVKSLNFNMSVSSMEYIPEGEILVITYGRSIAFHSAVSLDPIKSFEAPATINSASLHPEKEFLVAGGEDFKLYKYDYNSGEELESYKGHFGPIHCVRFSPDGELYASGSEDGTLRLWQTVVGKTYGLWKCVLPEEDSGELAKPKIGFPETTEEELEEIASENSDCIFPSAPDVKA
UniProt Q15005: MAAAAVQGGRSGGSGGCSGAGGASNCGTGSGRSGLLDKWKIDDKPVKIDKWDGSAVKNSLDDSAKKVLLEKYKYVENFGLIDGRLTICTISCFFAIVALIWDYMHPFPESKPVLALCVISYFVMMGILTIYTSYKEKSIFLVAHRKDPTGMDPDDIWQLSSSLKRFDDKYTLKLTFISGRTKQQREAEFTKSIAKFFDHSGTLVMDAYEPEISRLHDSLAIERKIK
UniProt P42224: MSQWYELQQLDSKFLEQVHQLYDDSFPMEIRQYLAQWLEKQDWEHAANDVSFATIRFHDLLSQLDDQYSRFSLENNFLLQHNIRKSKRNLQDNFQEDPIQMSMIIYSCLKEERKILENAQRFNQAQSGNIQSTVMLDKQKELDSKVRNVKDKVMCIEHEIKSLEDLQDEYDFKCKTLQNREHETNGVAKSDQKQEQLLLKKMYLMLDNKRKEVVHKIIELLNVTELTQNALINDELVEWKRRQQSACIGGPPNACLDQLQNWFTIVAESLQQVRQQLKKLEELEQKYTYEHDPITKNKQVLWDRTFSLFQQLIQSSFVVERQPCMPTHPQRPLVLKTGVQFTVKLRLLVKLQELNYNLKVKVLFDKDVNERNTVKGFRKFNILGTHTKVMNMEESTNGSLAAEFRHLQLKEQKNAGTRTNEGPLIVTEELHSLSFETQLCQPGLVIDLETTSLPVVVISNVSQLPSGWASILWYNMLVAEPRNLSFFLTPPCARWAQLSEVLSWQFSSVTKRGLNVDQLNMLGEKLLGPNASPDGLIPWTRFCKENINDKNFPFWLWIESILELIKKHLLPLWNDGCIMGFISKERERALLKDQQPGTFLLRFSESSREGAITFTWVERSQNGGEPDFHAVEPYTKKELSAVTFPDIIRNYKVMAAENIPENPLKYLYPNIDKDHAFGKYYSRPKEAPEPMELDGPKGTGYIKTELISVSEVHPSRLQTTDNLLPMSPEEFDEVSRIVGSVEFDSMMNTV
UniProt P11831: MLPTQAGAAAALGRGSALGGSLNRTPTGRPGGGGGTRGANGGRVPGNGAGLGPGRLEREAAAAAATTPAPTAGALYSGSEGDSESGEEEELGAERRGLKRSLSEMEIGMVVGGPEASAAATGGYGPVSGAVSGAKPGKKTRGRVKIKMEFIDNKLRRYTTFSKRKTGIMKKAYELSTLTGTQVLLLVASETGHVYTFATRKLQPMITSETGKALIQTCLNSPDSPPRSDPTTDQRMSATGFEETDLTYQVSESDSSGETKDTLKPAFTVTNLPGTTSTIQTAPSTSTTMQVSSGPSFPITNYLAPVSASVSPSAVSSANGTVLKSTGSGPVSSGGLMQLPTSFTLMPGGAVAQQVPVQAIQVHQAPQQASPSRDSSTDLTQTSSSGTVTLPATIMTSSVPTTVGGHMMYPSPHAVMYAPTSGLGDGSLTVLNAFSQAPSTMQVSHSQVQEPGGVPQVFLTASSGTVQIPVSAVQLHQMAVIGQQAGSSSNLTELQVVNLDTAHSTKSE
UniProt O60493, whole entry: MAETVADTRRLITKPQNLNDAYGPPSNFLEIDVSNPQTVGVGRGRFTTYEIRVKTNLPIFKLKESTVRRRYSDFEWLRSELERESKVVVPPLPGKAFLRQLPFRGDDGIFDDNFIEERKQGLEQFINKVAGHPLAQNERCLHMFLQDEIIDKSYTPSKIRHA
UniProt Q15833: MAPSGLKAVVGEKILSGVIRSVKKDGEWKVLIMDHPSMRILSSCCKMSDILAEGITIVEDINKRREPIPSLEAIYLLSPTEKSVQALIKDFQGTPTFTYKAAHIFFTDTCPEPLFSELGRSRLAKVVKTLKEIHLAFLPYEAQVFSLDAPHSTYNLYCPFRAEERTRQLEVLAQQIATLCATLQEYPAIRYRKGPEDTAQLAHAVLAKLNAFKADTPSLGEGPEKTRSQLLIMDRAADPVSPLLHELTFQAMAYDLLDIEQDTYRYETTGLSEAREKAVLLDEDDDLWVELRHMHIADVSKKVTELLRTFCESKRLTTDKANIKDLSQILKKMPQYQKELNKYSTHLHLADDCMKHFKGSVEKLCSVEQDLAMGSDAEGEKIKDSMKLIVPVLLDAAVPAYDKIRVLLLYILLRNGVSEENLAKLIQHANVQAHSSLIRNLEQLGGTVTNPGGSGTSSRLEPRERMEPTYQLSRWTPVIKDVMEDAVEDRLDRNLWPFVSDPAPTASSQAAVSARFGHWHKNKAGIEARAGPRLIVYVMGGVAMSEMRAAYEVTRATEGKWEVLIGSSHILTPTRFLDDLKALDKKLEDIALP
UniProt P63165, whole entry: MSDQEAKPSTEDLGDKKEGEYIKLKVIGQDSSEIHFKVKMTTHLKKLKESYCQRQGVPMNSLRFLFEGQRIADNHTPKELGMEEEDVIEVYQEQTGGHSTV
UniProt Q92925, whole entry: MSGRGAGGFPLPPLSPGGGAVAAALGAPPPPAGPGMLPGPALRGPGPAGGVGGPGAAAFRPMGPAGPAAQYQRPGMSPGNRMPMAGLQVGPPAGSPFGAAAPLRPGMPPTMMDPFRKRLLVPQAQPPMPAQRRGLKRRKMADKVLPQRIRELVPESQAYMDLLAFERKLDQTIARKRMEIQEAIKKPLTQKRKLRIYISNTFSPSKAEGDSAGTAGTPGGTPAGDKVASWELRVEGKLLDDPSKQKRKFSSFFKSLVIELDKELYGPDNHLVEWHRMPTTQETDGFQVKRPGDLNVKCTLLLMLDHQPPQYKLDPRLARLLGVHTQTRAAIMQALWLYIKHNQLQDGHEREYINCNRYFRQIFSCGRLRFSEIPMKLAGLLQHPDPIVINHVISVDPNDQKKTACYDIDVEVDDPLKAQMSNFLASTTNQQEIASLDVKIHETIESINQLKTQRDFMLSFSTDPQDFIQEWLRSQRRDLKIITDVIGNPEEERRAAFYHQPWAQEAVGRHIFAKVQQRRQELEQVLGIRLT

compound: COc1ccc(Cn2ccc3ccc(C(=O)NO)cc32)cc1; assay: dose-dependent thermal stabilisation call (2D-TPP, DLPTP, 10% FDR) (binary (1 = stabilised)); higher = stabilised by the compound; details: system: HL-60 intact cells; concentration range 0.04-10 µM

Target | dose-dependent thermal stabilisation call
SNRPB2 (UniProt P08579) | inactive: 0
SNUPN (UniProt O95149) | inactive: 0
SMARCC2 (UniProt Q8TAQ2) | inactive: 0
SPAG9 (UniProt O60271) | inactive: 0
STT3A (UniProt P46977) | inactive: 0
SPRYD3 (UniProt Q8NCJ5) | inactive: 0
SSR3 (UniProt Q9UNL2) | inactive: 0
SOD2 (UniProt P04179) | inactive: 0
SRPK1 (UniProt Q96SB4) | inactive: 0
SUCLA2 (UniProt Q9P2R7) | inactive: 0
SMAD2 (UniProt Q15796) | inactive: 0
SPPL2B (UniProt Q8TCT7) | inactive: 0
SUCLG2 (UniProt Q96I99) | inactive: 0
STX6 (UniProt O43752) | inactive: 0
SRRM2 (UniProt Q9UQ35) | inactive: 0
SMAP2 (UniProt Q8WU79) | inactive: 0
SRP54 (UniProt P61011) | inactive: 0
SNRPB (UniProt P14678) | inactive: 0
TAF6 (UniProt P49848) | inactive: 0

Target | dose-dependent thermal stabilisation call
SNX17 (UniProt Q15036) | inactive: 0
STRAP (UniProt Q9Y3F4) | inactive: 0
SURF2 (UniProt Q15527) | inactive: 0
SPCS2 (UniProt Q15005) | inactive: 0
SPTLC1 (UniProt O15269) | inactive: 0
SND1 (UniProt Q7KZF4) | inactive: 0
STAT1 (UniProt P42224) | inactive: 0
SRF (UniProt P11831) | inactive: 0
SNX3 (UniProt O60493) | inactive: 0
STK38 (UniProt Q15208) | inactive: 0
STAT5B (UniProt P51692) | inactive: 0
SNRNP200 (UniProt O75643) | inactive: 0
STXBP2 (UniProt Q15833) | inactive: 0
SRPK2 (UniProt P78362) | inactive: 0
STRN3 (UniProt Q13033) | inactive: 0
SUMO1 (UniProt P63165) | inactive: 0
STX5 (UniProt Q13190) | inactive: 0
SMARCD2 (UniProt Q92925) | inactive: 0

Given as a markdown table: part of the list above

| Target | dose-dependent thermal stabilisation call |
| --- | --- |
| SND1 (UniProt Q7KZF4) | inactive: 0 |
| STAT1 (UniProt P42224) | inactive: 0 |
| SRF (UniProt P11831) | inactive: 0 |
